PubChem BioAssay AID1224828 – NIAID, 2016
In all, the deposit lists about 17,000 reagents; this is an unselected part. 762 of them (4.5%) count as active. 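Active calls include both raised and lowered p65 entry, mostly lowered; wells with fewer than 50 cells lack a z-score.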 Raw values vary from plate to plate and are shown uncorrected.

- Aim: 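Regulators linking TLR4 signalling to p65 nuclear translocation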 (primary screen)
- Cell system: mouse RAW264.7 G9 macrophage reporter cells (GFP-p65, Tnf promoter-mCherry)
- Knock-down reagent: siRNA pool against mouse genes, 100 nM
- Time to read-out: 2 days siRNA transfection, then 40 min LPS before fixation
- Treatment: LPS (Salmonella minnesota R595) at 10 ng/ml
- Detection: 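Imaged p65 nuclear translocation ratio, normalised to the plate median, converted to robust z-scores and averaged across two replicates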
- Scale: p65 translocation robust z-score: higher = more nuclear NF-kappaB p65 after LPS than the plate median; nuclear/cytoplasmic p65 ratio: higher = more nuclear NF-kappaB p65
- Call rule: 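Called active when z exceeds 3.3 or falls under -1.56 (median of Tlr4 controls), giving activity score of at least 50; no calls for control wells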
- Calls: active = hit (p65 shift raised or lowered); inactive = no clear change

gene knocked down	p65 translocation robust z-score	nuclear/cytoplasmic p65 ratio, rep 1	nuclear/cytoplasmic p65 ratio, rep 2	low cell count flag	outcome
Rad51 (GeneID 19361)	2.27	1.71	1.96	enough cells to score	inactive
Slfnl1 (GeneID 194219)	1.18	1.4	1.47	enough cells to score	inactive
Polr2b (GeneID 231329)	0.29	1.54	1.38	enough cells to score	inactive
T2 (GeneID 21331)	0.41	1.39	1.26	enough cells to score	inactive
Gstt4 (GeneID 75886)		0.986	1.1	fewer than 50 cells per well; well left out of scoring	inactive
Rnf103 (GeneID 22644)	0.89	1.52	1.33	enough cells to score	inactive
Zfp706 (GeneID 68036)		1	1.07	fewer than 50 cells per well; well left out of scoring	inactive
Traf3ip2 (GeneID 103213)	0.11	1.67	1.65	enough cells to score	inactive
Rasd1 (GeneID 19416)	-1.61	1.28	2.26	enough cells to score	active
Etf1 (GeneID 225363)	-1.84	1.21	1.14	enough cells to score	active
Nob1 (GeneID 67619)	-0.51	1.4	1.35	enough cells to score	inactive
Ecrg4 (GeneID 78896)	-0.06	1.54	1.43	enough cells to score	inactive
P2rx1 (GeneID 18436)	-0.9	1.28	1.34	enough cells to score	inactive
Sgcb (GeneID 24051)	0.85	1.59	1.76	enough cells to score	inactive
Mak (GeneID 17152)		1.75	1.45	fewer than 50 cells per well; well left out of scoring	inactive
Pex11g (GeneID 69129)	-1.08	1.29	1.24	enough cells to score	inactive
Vmn2r1 (GeneID 56544)	0.76	1.85	1.45	enough cells to score	inactive
Spag1 (GeneID 26942)	-1.92	1.3	1.26	enough cells to score	active
Grid2ip (GeneID 170935)	-0.27	1.69	1.52	enough cells to score	inactive
Atp6v1b2 (GeneID 11966)	-1.65	1.29	1.35	enough cells to score	active
Nsd3 (GeneID 234135)	-0.39	1.5	1.51	enough cells to score	inactive
Isoc2b (GeneID 67441)		1.15	1.15	fewer than 50 cells per well; well left out of scoring	inactive
Ccl9 (GeneID 20308)	1.43	1.7	2.13	enough cells to score	inactive
Dcaf5 (GeneID 320808)	0.9	1.52	1.36	enough cells to score	inactive
Dhcr24 (GeneID 74754)	-0.09	1.47	1.36	enough cells to score	inactive
Marcksl1 (GeneID 17357)		1.21	0.972	fewer than 50 cells per well; well left out of scoring	inactive
Nusap1 (GeneID 108907)	0.42	1.41	1.55	enough cells to score	inactive
Pdc (GeneID 20028)	-0.55	1.43	1.66	enough cells to score	inactive
Pi15 (GeneID 94227)	0.39	1.47	1.3	enough cells to score	inactive
Lypd1 (GeneID 72585)	0	1.4	1.73	enough cells to score	inactive
Aox3 (GeneID 71724)		1.1	1.4	fewer than 50 cells per well; well left out of scoring	inactive
4632434I11RIK	0.54	1.35	1.28	enough cells to score	inactive
Sfswap (GeneID 231769)	1.67	1.73	1.86	enough cells to score	inactive
Cxcr4 (GeneID 12767)		1.65	1.75	fewer than 50 cells per well; well left out of scoring	inactive
Myo1e (GeneID 71602)	0.25	1.86	1.6	enough cells to score	inactive
Tafa2 (GeneID 268354)	-0.66	1.52	1.57	enough cells to score	inactive
Slc25a26 (GeneID 67582)		1.32	1.22	fewer than 50 cells per well; well left out of scoring	inactive
Dennd10 (GeneID 67894)	1.53	1.52	1.52	enough cells to score	inactive
Ccl21d (GeneID 100862177)	0.76	1.42	1.47	enough cells to score	inactive
Gabarapl2 (GeneID 93739)	0.22	1.56	1.55	enough cells to score	inactive
Ccn4 (GeneID 22402)	0.47	1.63	1.62	enough cells to score	inactive
Lsm7 (GeneID 66094)	-1.27	1.61	1.28	enough cells to score	inactive
Six1 (GeneID 20471)	2.24	1.85	1.27	enough cells to score	inactive
Tfec (GeneID 21426)	0.09	1.57	1.49	enough cells to score	inactive
Fbxo27 (GeneID 233040)		1.29	1.22	fewer than 50 cells per well; well left out of scoring	inactive
Vrk3 (GeneID 101568)	-0.89	1.4	1.27	enough cells to score	inactive
A530020G20Rik (GeneID 319839)	0.53	1.41	1.64	enough cells to score	inactive
Tex14 (GeneID 83560)	-0.61	1.55	1.34	enough cells to score	inactive
Rptn (GeneID 20129)		1.3	1.24	fewer than 50 cells per well; well left out of scoring	inactive
Ccl4 (GeneID 20303)		1.71	1.22	fewer than 50 cells per well; well left out of scoring	inactive
Capza1b (GeneID 66747)	0.04	1.24	1.31	enough cells to score	inactive
BC028528 (GeneID 229600)	-0.32	1.37	1.51	enough cells to score	inactive
Sigirr (GeneID 24058)	-0.03	1.57	1.71	enough cells to score	inactive
Aatf (GeneID 56321)	-0.19	1.49	1.67	enough cells to score	inactive
Dbr1 (GeneID 83703)	2.49	1.79	1.7	enough cells to score	inactive
Pygm (GeneID 19309)	-1.83	1.27	1.48	enough cells to score	active
Stmn1 (GeneID 16765)	0.37	1.44	1.77	enough cells to score	inactive
Samd5 (GeneID 320825)	-0.48	1.34	1.36	enough cells to score	inactive
Fgf2 (GeneID 14173)	-0.36	1.42	1.29	enough cells to score	inactive

9 consecutive entries already listed:
gene knocked down	p65 translocation robust z-score	nuclear/cytoplasmic p65 ratio, rep 1	nuclear/cytoplasmic p65 ratio, rep 2	low cell count flag	outcome
Myo1e (GeneID 71602)	0.25	1.86	1.6	enough cells to score	inactive
Tafa2 (GeneID 268354)	-0.66	1.52	1.57	enough cells to score	inactive
Slc25a26 (GeneID 67582)		1.32	1.22	fewer than 50 cells per well; well left out of scoring	inactive
Dennd10 (GeneID 67894)	1.53	1.52	1.52	enough cells to score	inactive
Ccl21d (GeneID 100862177)	0.76	1.42	1.47	enough cells to score	inactive
Gabarapl2 (GeneID 93739)	0.22	1.56	1.55	enough cells to score	inactive
Ccn4 (GeneID 22402)	0.47	1.63	1.62	enough cells to score	inactive
Lsm7 (GeneID 66094)	-1.27	1.61	1.28	enough cells to score	inactive
Six1 (GeneID 20471)	2.24	1.85	1.27	enough cells to score	inactive
